Results: US20160207976A1
Results are given in words; binding and its absence hold for the method and conditions named. Binding can be weak; no strength is given.

Key:
[1] = target: Glycoprotein VI (GPVI) purified from human platelets (human); test: affinity chromatography of platelet membrane glycoproteins on immobilised convulxin
[2] = target: Glycoprotein VI (GPVI) purified from human platelets (human); test: affinity chromatography of platelet membrane glycoproteins on convulxin-Sepharose 4B

B1: convulxin, snake C-type lectin from the Tropical Rattlesnake Crotalus durissus terrificus (protein)
chain 1: GLHCPSDWYYYDQHCYRIFNEEMNWEDAEWFCTKQAKGAHLVSIKSAKEADFVAWMVTQNIEESFSHVSIGLRVQNKEKQCSTKWSDGSSVSYDNLLDLYITKCSLLKKETGFRKWFVASCIGKIPFVCKFPPQC
chain 2: GFCCPSHWSSYDRYCYKVFKQEMTWADAEKFCTQQHTGSHLVSFHSTEEVDFVVKMTHQSLKSTFFWIGANNIWNKCNWQWSDGTKPEYKEWHEEFECLISRTFDNQWLSAPCSDTYSFVCKFEA
For B1, the binding [1] was “binds” and the binding [2] was “binds”.
